Key:
[1] = Cholestenoic acids in mouse plasma by LC-ESI-MSn
[2] = Cholestenoic acids in mouse brain by LC-ESI-MSn
[3] = WT mouse (Cyp7b1 colony), 13 months
[4] = WT mouse (Cyp7b1 colony), 23 months
[5] = WT mouse (Cyp27a1 colony), 3 months

SMILES	Mean concentration in plasma (ng/mL ± SD) ([1]; Cyp7b1−/− mouse, 13 months) [ng/mL]	Mean concentration in plasma (ng/mL ± SD) ([1]; Cyp7b1−/− mouse, 23 months) [ng/mL]	Mean concentration in plasma (ng/mL ± SD) [1, 3] [ng/mL]	Mean concentration in plasma (ng/mL ± SD) [1, 4] [ng/mL]	Mean concentration in plasma (ng/mL ± SD) [1, 5] [ng/mL]	Mean concentration in brain (ng/mg ± SD) ([2]; Cyp7b1−/− mouse, 13 months) [ng/mg]	Mean concentration in brain (ng/mg ± SD) ([2]; Cyp7b1−/− mouse, 23 months) [ng/mg]	Mean concentration in brain (ng/mg ± SD) [2, 3] [ng/mg]	Mean concentration in brain (ng/mg ± SD) [2, 4] [ng/mg]	Mean concentration in plasma (ng/mL ± SD) ([1]; Cyp27a1−/− mouse, 3 months) [ng/mL]
CC(CCC[C@@H](C)[C@H]1CC[C@H]2[C@@H]3CC=C4C[C@@H](O)CC[C@]4(C)[C@H]3CC[C@]12C)C(=O)O (stereo partly drawn) [3β-HCA, 3β-hydroxycholest-5-en-26-oic acid]	7.32 ± 1.50	6.69 ± 2.64	1.97 ± 0.72	1.75 ± 0.50	3.56 ± 1.22	0.12 ± 0.02	0.15 ± 0.01	0.01 ± 0.00	0.01 ± 0.00	
CC(CCC[C@@H](C)[C@H]1CC[C@H]2[C@@H]3[C@H](O)CC4=CC(=O)CC[C@]4(C)[C@H]3CC[C@]12C)C(=O)O (stereo partly drawn) [7αH,3O-CA, 7α-hydroxy-3-oxocholest-4-en-26-oic acid]	14.21 ± 3.76	20.73 ± 1.77	25.89 ± 10.9	125.19 ± 9.44	28.96 ± 7.22					5.23 ± 1.07
C[C@H](CCCC(C)(C)O)[C@H]1CC[C@H]2[C@@H]3CC=C4C[C@@H](O)CC[C@]4(C)[C@H]3CC[C@]12C [25-HC, cholest-5-ene-3β,25-diol]							> 2			

Source: patent US20230416299A1, “COMPOUND AND METHOD FOR THE TREATMENT AND DIAGNOSIS OF NEURODEGENERATIVE CONDITIONS” (Swansea University, priority 2013, published 2023)
